{
  "source": "PubChem BioAssay AID276",
  "about": "(DTP/NCI, 2004)",
  "test_system": "B6C3F1 mice, Lewis lung carcinoma iv, survival T/C",
  "test": "NCI In Vivo Anticancer Drug Screen. Data for tumor model Lewis Lung Carcinoma (intravenous) in B6C3F1 mice",
  "conditions": "T/C endpoint: median survival time, higher T/C = longer survival",
  "experimental": "The antitumor activity of compounds was measured in mice bearing transplantable tumors. Survival or tumor size were measured and the results are expressed as the measurement made in the treated group (T) divided by the measurement made in the vehicle treated control group (C). The tumor model used in this assay is Lewis Lung Carcinoma (intravenous) in B6C3F1 mice",
  "key": {"[1]": {"conditions": "dose: 50.0 mg/kg/injection, schedule: Q01DX009 (ip), vehicle: distilled water + Tween-80"}, "[2]": {"conditions": "dose: 200.0 mg/kg/injection, schedule: Q01DX001 (ip), vehicle: water"}, "[3]": {"conditions": "dose: 400.0 mg/kg/injection, schedule: Q01DX001 (ip), vehicle: water"}},
  "note": "The list does not hold the whole screen: it gathers some chemical classes. Not every dose and run of a compound is shown. T/C gives the treated animals as a percentage of the vehicle group. Some entries give survivors of the animals treated and no T/C: the source files T/C as zero there, which appears to mark a toxic dose or a test without result, not a measured value. Some doses without a T/C left all or most animals alive at the check, yet need not have been tolerated: the source hardly ever lists a survival T/C far under the control, and the zero likely stands for such cases as well. Counts of survivors are from the toxicity check (mostly the fifth day) where no day follows; animals may have died later. Schedule codes are those of the source, read here as Q, the interval in days (D) or hours (H), X, the number of doses. Some entries hold several experiments; their values stand side by side, smallest first. For survival time, the PubChem record calls one and a half times the control and up active, and a quarter to a half above the control has no call in these data; cut-offs in other NCI protocols can differ. Some T/C values are followed by the survivors on the day toxicity was checked, most often the fifth; where neither a count nor a note follows, no animal had died by that day.",
  "data": [
    {"smiles": "O=NN(CCSCCCl)C(=O)NC1CCCCC1", "values": [
      {"measurement": "T/C", "setting": "dose: 0.19 mg/kg/injection, schedule: Q01DX009 (ip), vehicle: saline with Tween-80", "value": "104 % of control"},
      {"measurement": "T/C", "setting": "dose: 0.39 mg/kg/injection, schedule: Q01DX009 (ip), vehicle: saline with Tween-80", "value": "104 % of control"},
      {"measurement": "T/C", "setting": "dose: 0.78 mg/kg/injection, schedule: Q01DX009 (ip), vehicle: saline with Tween-80", "value": "105 % of control"},
      {"measurement": "T/C", "setting": "dose: 1.56 mg/kg/injection, schedule: Q01DX009 (ip), vehicle: saline with Tween-80", "value": "110 % of control"},
      {"measurement": "T/C", "setting": "dose: 3.12 mg/kg/injection, schedule: Q01DX009 (ip), vehicle: saline with Tween-80", "value": "106 % of control"},
      {"measurement": "T/C", "setting": "dose: 6.25 mg/kg/injection, schedule: Q01DX009 (ip), vehicle: saline with Tween-80", "value": "105 % of control"}
    ]},
    {"smiles": "ClCCN(CCCl)c1ccccc1", "values": [
      {"measurement": "T/C", "setting": "dose: 3.12 mg/kg/injection, schedule: Q01DX009 (ip), vehicle: Klucel (hydroxypropylcellulose) (HPC)", "value": "103 % of control"},
      {"measurement": "T/C", "setting": "dose: 6.25 mg/kg/injection, schedule: Q01DX009 (ip), vehicle: Klucel (hydroxypropylcellulose) (HPC)", "value": "115 % of control"},
      {"measurement": "T/C", "setting": "dose: 12.5 mg/kg/injection, schedule: Q01DX009 (ip), vehicle: Klucel (hydroxypropylcellulose) (HPC)", "value": "135 % of control"},
      {"measurement": "T/C", "setting": "dose: 25.0 mg/kg/injection, schedule: Q01DX009 (ip), vehicle: Klucel (hydroxypropylcellulose) (HPC)", "value": "130 % of control"},
      {"measurement": "survivor count", "setting": "dose: 50.0 mg/kg/injection, schedule: Q01DX009 (ip), vehicle: Klucel (hydroxypropylcellulose) (HPC)", "value": "10 of 10"},
      {"measurement": "survivor count", "setting": "dose: 100.0 mg/kg/injection, schedule: Q01DX009 (ip), vehicle: Klucel (hydroxypropylcellulose) (HPC)", "value": "2 of 10"}
    ]},
    {"smiles": "NC1CCCCC1.NP(=O)(O)N(CCCl)CCCl", "values": [
      {"measurement": "T/C", "setting": "dose: 6.25 mg/kg/injection, schedule: Q01DX009 (ip), vehicle: distilled water + Tween-80", "value": "105 [9 of 10 alive] and 121 % of control"},
      {"measurement": "T/C", "setting": "dose: 12.5 mg/kg/injection, schedule: Q01DX009 (ip), vehicle: distilled water + Tween-80", "value": "102 [9 of 10 alive] and 126 % of control"},
      {"measurement": "T/C", "setting": "dose: 25.0 mg/kg/injection, schedule: Q01DX001 (ip), vehicle: water", "value": "113 % of control"},
      {"measurement": "T/C", "setting": "dose: 25.0 mg/kg/injection, schedule: Q01DX009 (ip), vehicle: distilled water + Tween-80", "value": "110 [9 of 10 alive] and 117 % of control"},
      {"measurement": "T/C", "setting": "dose: 50.0 mg/kg/injection, schedule: Q01DX001 (ip), vehicle: water", "value": "100 and 128 % of control"},
      {"measurement": "T/C", "setting": "[1]", "value": "133 % of control"},
      {"measurement": "survivor count", "setting": "[1]", "value": "10 of 10"},
      {"measurement": "T/C", "setting": "dose: 100.0 mg/kg/injection, schedule: Q01DX001 (ip), vehicle: water", "value": "125, 140, 154 % of control"},
      {"measurement": "survivor count", "setting": "dose: 100.0 mg/kg/injection, schedule: Q01DX009 (ip), vehicle: distilled water + Tween-80", "value": "10 of 10"},
      {"measurement": "T/C", "setting": "[2]", "value": "108 and 142 % of control"},
      {"measurement": "survivor count", "setting": "[2]", "value": "9 of 10"},
      {"measurement": "T/C", "setting": "[3]", "value": "196 % of control"},
      {"measurement": "survivor count", "setting": "[3]", "value": "0 of 10 and 10 of 10"},
      {"measurement": "survivor count", "setting": "dose: 800.0 mg/kg/injection, schedule: Q01DX001 (ip), vehicle: water", "value": "0 of 10 and 10 of 10"}
    ]}
  ]
}
